This is an account of results in PubChem BioAssay AID222 (DTP/NCI, 2004).

The structures appear in SMILES notation. The list is a part of this screen's results and no random one: it gathers tests that were run many times, whatever their T/C, doses with no T/C, and many T/C values between a quarter and a half above the control. Further doses and runs are listed elsewhere. T/C gives the treated animals as a percentage of the vehicle group. Some entries give survivors of the animals treated and no T/C: the source holds a T/C of zero for them, seemingly a mark for toxic or unscored doses. Some doses without a T/C left all or most animals alive at the check, yet need not have been tolerated: the source hardly ever lists a survival T/C far under the control, and the zero likely stands for such cases as well. Survivors were counted at the toxicity check, usually on the fifth day, unless a day is given; later deaths do not show. Schedule codes are those of the source, taken here to give the interval after Q, in days (D) or hours (H), and the number of doses after X. Some entries were tested several times; the values are given in rising order. Where survival is the endpoint, the PubChem record calls one and a half times the control and up active, and a quarter to a half above the control has no call in these data; cut-offs in other NCI protocols can differ. Some T/C values are followed by the survivors on the day toxicity was checked, most often the fifth; where none is given, no animal had died by that day. Counts like (3×) say how often a value occurs here. Some schedules carry Z or #; the key to these is not given. Starred links: 1 amine or outer side, 2 acyl side, 3 side chain; linkers in the order of their positions; H or OH if unused. Positions of bridges follow the written chain, without caps; N, C: chain ends. Non-standard residues stand in square brackets, D forms with d. Residues, ends and D or L forms follow the SMILES beside them. Chains are numbered I, II in the order given. Actinocin(1to9) = Cc1c2oc3c(C)ccc(C(=O)[*:2])c3nc-2c(C(=O)[*:1])c(N)c1=O; NMeV = CN[CH](C(=O)O)C(C)C; Aze = O=C(O)[CH]1CCN1; Sar = CNCC(=O)O

The test system of this experiment is C57BL/6 mice, intracerebral ependymoblastoma, median survival T/C. As to the kind of experiment: NCI In Vivo Anticancer Drug Screen. Data for tumor model Ependymoblastoma (intracerebral) in C57BL/6 mice. The note with it: T/C endpoint: median survival time, higher T/C = longer survival. How it is done: The antitumor activity of compounds was measured in mice bearing transplantable tumors. Survival or tumor size were measured and the results are expressed as the measurement made in the treated group (T) divided by the measurement made in the vehicle treated control group (C). The tumor model used in this assay is Ependymoblastoma (intracerebral) in C57BL/6 mice

Setting [1] is: dose: 0.5 mg/kg/injection, schedule: Q01DX005 (ip), vehicle: saline.
The mark [2] stands for this setting: dose: 2.0 mg/kg/injection, schedule: Q01DX005 (ip), vehicle: saline.
Where [3] appears, read: dose: 4.0 mg/kg/injection, schedule: Q01DX001 (ip), vehicle: saline.
The mark [4] stands for this setting: dose: 4.0 mg/kg/injection, schedule: Q01DX005 (ip), vehicle: saline.
Setting [5] is: dose: 8.0 mg/kg/injection, schedule: Q01DX005 (ip), vehicle: saline.
[6] abbreviates: dose: 16.0 mg/kg/injection, schedule: Q01DX005 (ip), vehicle: saline.
The mark [7] stands for this setting: dose: 20.0 mg/kg/injection, schedule: Q07DX003 (ip), vehicle: suspension in saline.
The mark [8] stands for this setting: dose: 32.0 mg/kg/injection, schedule: Q01DX001 (ip), vehicle: saline.
Setting [9] is: dose: 32.0 mg/kg/injection, schedule: Q01DX005 (ip), vehicle: saline.

In the case of `O=NN(CCCl)C(=O)NC1CCC(=O)NC1=O` (stereo unspecified), the T/C under setting [1] is given as 105, 112, 116, 126 % of control; the T/C (dose: 1.0 mg/kg/injection, schedule: Q01DX005 (ip), vehicle: saline) was 122, 137, 142 % of control (2×); the T/C (dose: 2.0 mg/kg/injection, schedule: Q01DX005 (ip), vehicle: Klucel (hydroxypropylcellulose) (HPC)) was 134 % of control; the T/C under setting [2] is 155, 196, 208, 250 % of control; the T/C (dose: 2.0 mg/kg/injection, schedule: Q01DX005 (ip), vehicle: suspension in saline) was 147 % of control [9 of 10 alive]; the T/C under setting [3] is 96 [2 of 10 alive], 106 [6 of 10 alive], 111, 123 % of control. Besides, the T/C reads like this: under setting [4], 108, 189, 305, 320 % of control; (dose: 4.0 mg/kg/injection, schedule: Q01DX005 (oral), vehicle: Klucel (hydroxypropylcellulose) (HPC)) 142 % of control; (dose: 8.0 mg/kg/injection, schedule: Q01DX001 (ip), vehicle: saline) 107 [7 of 10 alive], 109 [5 of 10 alive], 127, 140 % of control; under setting [5], 89 and 108 % of control; (dose: 8.0 mg/kg/injection, schedule: Q#A X002 (ip), vehicle: saline) 147 % of control [7 of 10 alive]; (dose: 10.0 mg/kg/injection, schedule: Q07DX003 (ip), vehicle: saline) 127 % of control. Besides, the T/C by setting is: (dose: 10.0 mg/kg/injection, schedule: Q07DX003 (ip), vehicle: suspension in saline) 133, 159, 176, 211, 226 % of control; (dose: 16.0 mg/kg/injection, schedule: Q01DX001 (ip), vehicle: saline) 96 [3 of 10 alive], 105 [4 of 10 alive], 138, 207 % of control; under setting [7], 90, 95, 135 % of control; under setting [8], 104 [3 of 10 alive], 112 [8 of 10 alive], 133, 165 % of control; (dose: 32.0 mg/kg/injection, schedule: Q#A X002 (ip), vehicle: saline) 127 % of control [6 of 10 alive]; (dose: 64.0 mg/kg/injection, schedule: Q01DX001 (ip), vehicle: saline) 102 [1 of 10 alive], 102 [5 of 10 alive], 105 [8 of 10 alive], 244 % of control. In addition, the survivor count was 3 of 10 (dose: 7.0 mg/kg/injection, schedule: Q01DX001 (ip), vehicle: saline with Tween-80); 10 of 10 under setting [5]; 10 of 10 (dose: 8.0 mg/kg/injection, schedule: Q01DX005 (ip), vehicle: suspension in saline); 10 of 10 (dose: 8.0 mg/kg/injection, schedule: Q01DX005 (oral), vehicle: Klucel (hydroxypropylcellulose) (HPC)); 10 of 10 (dose: 16.0 mg/kg/injection, schedule: Q01DX005 (ip), vehicle: Klucel (hydroxypropylcellulose) (HPC)); 10 of 10 under setting [6]. The survivor count was 10 of 10 (dose: 16.0 mg/kg/injection, schedule: Q01DX005 (ip), vehicle: suspension in saline); 9 of 10 (dose: 16.0 mg/kg/injection, schedule: Q01DX005 (oral), vehicle: Klucel (hydroxypropylcellulose) (HPC)); 8 of 10 (dose: 20.0 mg/kg/injection, schedule: Q07DX003 (ip), vehicle: saline); 7 of 10 and 10 of 10 under setting [7]; 3 of 10 (dose: 32.0 mg/kg/injection, schedule: Q01DX005 (oral), vehicle: Klucel (hydroxypropylcellulose) (HPC)); 5 of 6 (dose: 40.0 mg/kg/injection, schedule: Q01DX001 (oral), vehicle: other). The survivor count runs as follows: (dose: 64.0 mg/kg/injection, schedule: Q01DX005 (oral), vehicle: Klucel (hydroxypropylcellulose) (HPC)) 1 of 10; (dose: 80.0 mg/kg/injection, schedule: Q01DX001 (oral), vehicle: other) 1 of 6.

In the case of `CC(=O)OC(C1CO1)C(OC(C)=O)C1CO1` (stereo unspecified), the survivor count reads like this: (dose: 20.0 mg/kg/injection, schedule: Q01DX005 (ip), vehicle: saline) 10 of 10; (dose: 24.0 mg/kg/injection, schedule: Q01DX005 (ip), vehicle: saline) 1 of 7; (dose: 28.0 mg/kg/injection, schedule: Q01DX005 (oral), vehicle: saline) 3 of 7.

`Cc1c2oc3c(C)ccc(C(=O)NC4C(=O)NC(C(C)C)C(=O)N5CCCC5C(=O)N(C)CC(=O)N(C)C(C(C)C)C(=O)OC4C)c3nc-2c(C(=O)NC2C(=O)NC(C(C)C)C(=O)N3CCC3C(=O)N(C)CC(=O)N(C)C(C(C)C)C(=O)OC2C)c(N)c1=O` (stereo unspecified) (I: TV[Aze][Sar][NMeV] / II: TVP[Sar][NMeV]; ester I:1-I:C, II:1-II:C; linker I:N-II:N via Actinocin(1to9); configuration not given here): the survivor count is recorded as 5 of 6 (dose: 200.0 micrograms/kg/injection, schedule: Q01DX005 (ip), vehicle: saline); 3 of 6 (dose: 400.0 micrograms/kg/injection, schedule: Q01DX005 (ip), vehicle: saline); 0 of 6 (dose: 800.0 micrograms/kg/injection, schedule: Q01DX005 (ip), vehicle: saline).

With `CCOC(=O)CC(SP(=S)(OC)OC)C(=O)OCC` (stereo unspecified), the survivor count is 2 of 10 and 5 of 10 (dose: 360.0 mg/kg/injection, schedule: Q01DX005 (ip), vehicle: saline with Tween-80); 5 of 10 (dose: 400.0 mg/kg/injection, schedule: Q01DX005 (ip), vehicle: suspension in saline).

As to `N[C@H](C(=O)O)[C@@H]1CC(Cl)=NO1`, the T/C reads like this: under setting [2], 102, 103 [8 of 10 alive], 107, 108, 111, 112 % of control; under setting [4], 95 [9 of 10 alive], 103, 103 [8 of 10 alive], 105, 107, 112 % of control; under setting [5], 112, 113, 115, 118 % of control; under setting [6], 88, 118, 120, 126 % of control; under setting [8], 126 % of control [9 of 10 alive]; under setting [9], 121 % of control. The survivor count was 10 of 10 under setting [5]; 9 of 10 (dose: 16.0 mg/kg/injection, schedule: Q01DX005 (ip), vehicle: saline with Tween-80); 10 of 10 under setting [6]; 10 of 10 (dose: 32.0 mg/kg/injection, schedule: Q01DX005 (ip), vehicle: saline with Tween-80); 9 of 10 and 10 of 10 under setting [9]; 10 of 10 (dose: 64.0 mg/kg/injection, schedule: Q01DX005 (ip), vehicle: saline with Tween-80).

`O=P1(NCCCl)OCCC(OO)N1CCCl` (stereo unspecified): the survivor count (dose: 320.0 mg/kg/injection, schedule: Q01DX001 (ip), vehicle: Klucel (hydroxypropylcellulose) (HPC)) was 3 of 6.

Consider `COc1ccc(CC2C(=O)NC(C)C(=O)N(C)C3C(=O)N(C)C(Cc4ccc(O)c(c4)Oc4ccc(cc4)C3O)C(=O)NC(C)C(=O)NC(C)C(=O)N2C)cc1` (stereo unspecified), for which the survivor count under setting [2] is recorded as 8 of 10.

With `N[C@@H](Cc1ccc(N(CCCl)CCCl)cc1)C(=O)O`, the T/C runs as follows: under setting [1], 131 % of control; under setting [2], 141 % of control; under setting [4], 127 % of control; under setting [6], 131 % of control. Further, the survivor count runs as follows: under setting [3], 10 of 10; under setting [5], 8 of 10 and 9 of 10; under setting [9], 4 of 6.
